Experimental data published in the supplement of paper PMC12873370.
Several values for one entry are separate records, joined by “and”; a condition that tells them apart may be missing. Equal values may be shown once. This is one part of the list. Single values are uncertain, as repeats are few or missing.

How the values were obtained:
[1] = test system: MEPP (mouse ovarian epithelium Trp53/Pten KO); test: cell viability relative to untreated (fraction); higher = less growth inhibition; settings: 5 µM; 3 days
[2] = test system: PREPP (mouse prostate epithelium Trp53/Pten KO); test: as above; settings: 5 µM; 3 days

`COc1cc2c(=O)c(-c3ccc(O)cc3)coc2cc1O` was tested, and the cell viability [1] was 1.13 and the cell viability [2] was 0.848.

`CC(=O)O[C@H](CC(=O)O)C[N+](C)(C)C` was tested, and the cell viability [1] was 1.26 and the cell viability [2] was 1.05.

With `NCCCCNCCCN` the cell viability [1] was 1.14 and 0.797 and the cell viability [2] was 0.954 and 1.01.

`COc1ccc(Cc2cnc(N)nc2N)cc1OC` was tested, and the cell viability [1] was 1.18 and the cell viability [2] was 0.912.

With `CCN(CC)CC#CCOC(=O)C(O)(c1ccccc1)C1CCCCC1` (centres undefined) the cell viability [1] was 1.07 and the cell viability [2] was 0.994.

With `COC(=O)CCC(=O)CN` the cell viability [1] was 0.915 and the cell viability [2] was 0.933.

Molecule `CCCCCCCCCCCCCCCCO` has a cell viability [1] of 1.02 and a cell viability [2] of 0.846.

With `Nc1ccccc1S(N)(=O)=O` the cell viability [1] was 0.86 and the cell viability [2] was 1.08.

For `CCCCCCCC/C=C\CCCCCCCCCCCCCC(=O)O`, the cell viability [1] was 0.84 and the cell viability [2] was 0.905.

Work on `C[C@]12CCC(=O)C=C1CC[C@@H]1[C@@H]2C(=O)C[C@@]2(C)[C@H]1CC[C@]2(O)C(=O)CO` yielded a cell viability [1] of 1.09 and a cell viability [2] of 0.99.

Molecule `CC1(C)C[C@@H]1C(=O)N/C(=C\CCCCSC[C@H](N)C(=O)O)C(=O)O` has a cell viability [1] of 0.804 and a cell viability [2] of 0.9.

With `COc1ccc(-c2oc3cc(OC)c(OC)c(O)c3c(=O)c2OC)cc1O` the cell viability [1] was 1.04 and the cell viability [2] was 0.679.

With `CN1CCC[C@H]1c1cccnc1` the cell viability [1] was 0.858 and the cell viability [2] was 1.3.

`O=S(=O)(O)CCSSCCS(=O)(=O)O` gave a cell viability [1] of 1.14 and a cell viability [2] of 0.743.

`Cn1c(=O)c2[nH]cnc2n(C)c1=O` was tested, and the cell viability [1] was 1.02 and the cell viability [2] was 0.948.

`COc1ccc(-c2coc3cc(O)ccc3c2=O)cc1` showed a cell viability [1] of 1.24 and a cell viability [2] of 0.94.

For `Cc1ccc(C(C)C)c(O)c1`, the cell viability [1] was 1.4 and the cell viability [2] was 0.972.

`Cc1onc(-c2ccccc2)c1C(=O)N[C@@H]1C(=O)N2[C@@H]1SC(C)(C)[C@@H]2C(=O)O` showed a cell viability [1] of 0.927 and a cell viability [2] of 0.933.

Work on `CC1(C)[C@H](C(=O)O)N2C(=O)C[C@H]2S1(=O)=O` yielded a cell viability [1] of 0.964 and a cell viability [2] of 0.896.

With `O=C1O[C@H](CO)[C@@H](O)[C@H](O)[C@H]1O` the cell viability [1] was 0.876 and the cell viability [2] was 0.966.

For `Cc1noc(NS(=O)(=O)c2ccc(N)cc2)c1C`, the cell viability [1] was 1.11 and the cell viability [2] was 0.953.

With `N=C(NCCCCCCNC(=N)NC(=N)Nc1ccc(Cl)cc1)NC(=N)Nc1ccc(Cl)cc1` the cell viability [1] was 0.909 and the cell viability [2] was 0.384.

`OC[C@H]1O[C@@H](n2cnc3c(O)nc(O)nc32)[C@H](O)[C@@H]1O` gave a cell viability [1] of 1.16 and a cell viability [2] of 0.973.

`Oc1cccc(O)c1` was tested, and the cell viability [1] was 1.58 and the cell viability [2] was 0.941.

With `CCN1CCN(C(=O)N[C@@H](C(=O)N[C@@H]2C(=O)N3C(C(=O)O)=C(CSc4nnnn4C)CS[C@H]23)c2ccc(O)cc2)C(=O)C1=O` the cell viability [1] was 1.15 and the cell viability [2] was 0.883.

`C[C@@H]1O[C@@H](OC[C@H]2O[C@@H](Oc3cc(O)c4c(c3)O[C@H](c3ccc(O)c(O)c3)CC4=O)[C@H](O)[C@@H](O)[C@@H]2O)[C@H](O)[C@H](O)[C@H]1O` showed a cell viability [1] of 1.18 and a cell viability [2] of 0.994.

Work on `C[C@]12CC[C@@H]3c4ccc(OS(=O)(=O)O)cc4CC[C@H]3[C@@H]1CCC2=O` yielded a cell viability [1] of 0.842 and a cell viability [2] of 0.845.

With `C/C=C/c1ccc(OC)cc1` the cell viability [1] was 0.979 and the cell viability [2] was 1.01.

`Nc1c2ccccc2nc2ccccc12` was tested, and the cell viability [1] was 0.629 and the cell viability [2] was 0.894.

In the case of `CO[C@H]1C[C@@H]2CC[C@@H](C)[C@@](O)(O2)C(=O)C(=O)N2CCCC[C@H]2C(=O)O[C@H]([C@H](C)C[C@@H]2CC[C@@H](O)[C@H](OC)C2)CC(=O)[C@H](C)/C=C(\C)[C@@H](O)[C@@H](OC)C(=O)[C@H](C)C[C@H](C)/C=C/C=C/C=C/1C`, the cell viability [1] is reported as 0.854 and the cell viability [2] is reported as 0.717.

`N[C@@H](CCCCNC(=O)CCCC[C@@H]1SC[C@@H]2NC(=O)N[C@@H]21)C(=O)O` gave a cell viability [1] of 0.821 and a cell viability [2] of 0.865.

`CC(C(=O)O)c1ccccc1` (centres undefined) showed a cell viability [1] of 0.947 and a cell viability [2] of 0.953.

`NC(=O)c1ccc[n+]([C@@H]2O[C@H](COP(=O)([O-])O)[C@@H](O)[C@H]2O)c1` showed a cell viability [1] of 1.15 and a cell viability [2] of 0.889.

Work on `COc1cc(CCC(=O)O)ccc1O` yielded a cell viability [1] of 1.04 and a cell viability [2] of 0.976.

With `CC(C)(c1ccc(O)cc1)c1ccc(O)cc1` the cell viability [1] was 0.863 and the cell viability [2] was 0.989.

`O[C@@H]1[C@@H](O)[C@@H](OC/C=C/c2ccccc2)O[C@H](CO[C@@H]2OC[C@H](O)[C@H](O)[C@H]2O)[C@H]1O` showed a cell viability [1] of 1.05 and a cell viability [2] of 1.06.

Molecule `C[N+](C)(C)CCO.[Cl-]` has a cell viability [1] of 1.22 and a cell viability [2] of 0.986.

Molecule `NC(=O)c1ccc[n+]([O-])c1` has a cell viability [1] of 0.883 and a cell viability [2] of 1.07.

In the case of `CC(C)[C@@H](C)[C@@H](O)[C@H](O)[C@@H](C)[C@H]1CC[C@H]2[C@@H]3COC(=O)[C@H]4C[C@H](O)[C@H](O)C[C@]4(C)[C@H]3CC[C@]12C`, the cell viability [1] is reported as 1.1 and the cell viability [2] is reported as 1.05.

`Cc1ncc(C[n+]2csc(CCOP(=O)(O)OP(=O)(O)O)c2C)c(N)n1` was tested, and the cell viability [1] was 0.766 and the cell viability [2] was 0.913.

In the case of `CC(=O)c1ccccc1`, the cell viability [1] is reported as 0.843 and the cell viability [2] is reported as 0.948.

For `C[C@H]1COC2=C1C(=O)C(=O)c1c2ccc2c1CCCC2(C)C`, the cell viability [1] was 1.31 and the cell viability [2] was 1.34.
